No constants are given. Whether binding was seen depends on the method and setting. In cells and extracts the contact can be indirect. Some entries that bind do so weakly or less than the wild type.

The chains behind the UniProt entries cited, without tags or fusion partners. Where a name states a change or a piece, a line headed by the entry shows the natural chain unless it says otherwise. A line that says so, or that is headed by a name, gives the form on record, which may keep a tag or linker.
ULF/TRIP12 (human (endogenous in HeLa)) (Q14669, form named): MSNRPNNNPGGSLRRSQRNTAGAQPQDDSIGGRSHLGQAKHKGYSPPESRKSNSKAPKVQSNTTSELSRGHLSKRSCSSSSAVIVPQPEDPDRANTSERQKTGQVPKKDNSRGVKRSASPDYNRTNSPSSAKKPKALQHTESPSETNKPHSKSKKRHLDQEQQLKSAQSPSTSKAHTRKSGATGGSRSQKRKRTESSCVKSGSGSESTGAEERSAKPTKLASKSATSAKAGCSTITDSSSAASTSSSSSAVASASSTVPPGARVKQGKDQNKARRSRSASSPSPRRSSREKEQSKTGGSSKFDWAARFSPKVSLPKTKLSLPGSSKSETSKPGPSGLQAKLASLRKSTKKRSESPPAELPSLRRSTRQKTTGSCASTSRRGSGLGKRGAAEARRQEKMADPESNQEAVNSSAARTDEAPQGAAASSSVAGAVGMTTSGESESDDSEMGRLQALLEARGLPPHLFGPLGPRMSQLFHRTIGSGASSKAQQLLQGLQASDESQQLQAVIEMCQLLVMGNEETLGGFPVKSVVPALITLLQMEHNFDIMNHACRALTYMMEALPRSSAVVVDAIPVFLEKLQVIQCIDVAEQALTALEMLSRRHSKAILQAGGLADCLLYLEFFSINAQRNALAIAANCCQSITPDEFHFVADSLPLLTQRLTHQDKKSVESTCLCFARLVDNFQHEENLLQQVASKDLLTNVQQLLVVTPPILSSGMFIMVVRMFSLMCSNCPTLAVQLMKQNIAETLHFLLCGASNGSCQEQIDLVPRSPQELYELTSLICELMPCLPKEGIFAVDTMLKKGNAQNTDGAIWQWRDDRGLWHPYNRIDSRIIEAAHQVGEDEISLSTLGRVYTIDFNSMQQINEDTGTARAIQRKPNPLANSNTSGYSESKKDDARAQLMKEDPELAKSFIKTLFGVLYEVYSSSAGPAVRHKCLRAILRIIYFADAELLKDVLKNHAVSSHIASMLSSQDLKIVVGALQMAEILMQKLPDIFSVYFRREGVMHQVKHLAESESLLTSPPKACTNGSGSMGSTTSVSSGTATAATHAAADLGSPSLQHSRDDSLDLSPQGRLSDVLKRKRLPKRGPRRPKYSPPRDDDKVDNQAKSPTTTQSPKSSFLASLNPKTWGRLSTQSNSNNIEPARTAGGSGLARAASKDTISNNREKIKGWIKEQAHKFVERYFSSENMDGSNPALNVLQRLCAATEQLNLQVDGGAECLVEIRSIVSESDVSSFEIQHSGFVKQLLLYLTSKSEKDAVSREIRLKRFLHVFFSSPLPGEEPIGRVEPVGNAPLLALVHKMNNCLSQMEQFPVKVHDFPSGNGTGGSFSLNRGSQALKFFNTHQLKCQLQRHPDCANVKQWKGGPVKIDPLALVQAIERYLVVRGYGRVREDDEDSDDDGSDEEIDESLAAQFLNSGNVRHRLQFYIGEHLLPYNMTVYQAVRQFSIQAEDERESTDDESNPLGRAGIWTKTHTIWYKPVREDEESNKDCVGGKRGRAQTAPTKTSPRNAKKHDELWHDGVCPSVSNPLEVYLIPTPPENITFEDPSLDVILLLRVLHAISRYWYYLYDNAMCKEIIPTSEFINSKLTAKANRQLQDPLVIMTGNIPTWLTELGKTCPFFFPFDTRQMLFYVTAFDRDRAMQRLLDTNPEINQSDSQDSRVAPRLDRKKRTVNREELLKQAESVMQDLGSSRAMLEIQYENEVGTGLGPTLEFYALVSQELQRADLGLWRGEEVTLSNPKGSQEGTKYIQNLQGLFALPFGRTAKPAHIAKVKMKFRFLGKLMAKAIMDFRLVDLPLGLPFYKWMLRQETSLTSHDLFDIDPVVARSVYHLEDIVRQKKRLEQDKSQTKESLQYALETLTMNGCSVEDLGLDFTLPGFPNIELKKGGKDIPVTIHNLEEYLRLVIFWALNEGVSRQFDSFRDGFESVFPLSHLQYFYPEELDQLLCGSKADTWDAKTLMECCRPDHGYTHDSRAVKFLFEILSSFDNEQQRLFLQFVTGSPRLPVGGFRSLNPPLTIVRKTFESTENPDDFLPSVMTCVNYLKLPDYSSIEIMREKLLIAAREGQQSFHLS

This assay deals with ULF/TRIP12 (human (endogenous in HeLa)) (UniProt Q14669). Description: co-IP; HeLa cells transfected with GFP or GFP-GLT plasmids for 24 h; lysates immunoprecipitated with anti-ULF or isotype-matched control antibodies.

As for “endogenous ARF (from UniProt Q8N726 1-132)”, the binding result is “binds”.

These data come from publication PMC5369963.
